Results deposited as PubChem BioAssay AID1259254 (NCATS, 2017).
Here is one part, drawn at random, of about 59,000 reagents. In the full data, about 1,550 (2.6%) are marked active. 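G2 share is only a proxy for re-replication; each gene was hit by three separate siRNAs, and active genes were retested.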 Raw values vary from plate to plate and are shown uncorrected. The numbers tell different reagents against one gene apart. No sequences are given here. Not stated in the record: the amount of reagent.

Assay: 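Finding genes that stop cells copying their DNA twice in one cycle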 (primary screen)
Cell system: human HCT116 colorectal cancer cells
Knock-down reagent: single siRNA against human genes
Time to read-out: 3 days
Measured: 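Imaged Hoechst DNA stain sorts each cell into a cycle phase by DNA amount; per plate, G2 fraction set to 0% for non-targeting and 100% for GMNN siRNA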
Scale: G2 robust z-score and G2 cells, % of GMNN control: higher = more G2 cells, more excess DNA replication; raw share of cells in G2: higher = larger share of cells with G2 DNA content
Hit rule: 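Active siRNAs have a G2 robust z of 5 or more median absolute deviations over the median, which in these data means about 38% or higher of GMNN control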

| gene knocked down | reagent no. | G2 robust z-score | G2 cells, % of GMNN control | raw share of cells in G2 (%) | call |
| --- | --- | --- | --- | --- | --- |
| BNIP3L (BCL2 interacting protein 3 like) | 1 | 0.893 | 9.25 | 9.64 | inactive |
| BNIP3L (BCL2 interacting protein 3 like) | 2 | -0.718 | -2.09 | 3.32 | inactive |
| BNIP3L (BCL2 interacting protein 3 like) | 3 | -0.325 | 0.681 | 3.79 | inactive |
| ZKSCAN1 (zinc finger with KRAB and SCAN domains 1) | 1 | 1.57 | 14 | 9.08 | inactive |
| ZKSCAN1 (zinc finger with KRAB and SCAN domains 1) | 2 | 4.2 | 32.5 | 19.3 | inactive |
| ZKSCAN1 (zinc finger with KRAB and SCAN domains 1) | 3 | -0.842 | -2.95 | 3.16 | inactive |
| KIF27 (kinesin family member 27) | 1 | -0.927 | -3.56 | 2.85 | inactive |
| KIF27 (kinesin family member 27) | 2 | 0.0517 | 3.33 | 5.63 | inactive |
| KIF27 (kinesin family member 27) | 3 | -0.633 | -1.48 | 5.78 | inactive |
| CST7 (cystatin F) | 1 | -0.248 | 1.22 | 5.09 | inactive |
| CST7 (cystatin F) | 2 | 1.55 | 13.9 | 9.68 | inactive |
| CST7 (cystatin F) | 3 | 1.92 | 16.5 | 11.1 | inactive |
| DDIT3 (DNA damage inducible transcript 3) | 1 | -0.264 | 1.11 | 3.96 | inactive |
| DDIT3 (DNA damage inducible transcript 3) | 2 | 0.965 | 9.75 | 9.88 | inactive |
| DDIT3 (DNA damage inducible transcript 3) | 3 | -0.463 | -0.29 | 3.98 | inactive |
| TAGLN3 (transgelin 3) | 1 | -0.819 | -2.79 | 2.37 | inactive |
| TAGLN3 (transgelin 3) | 2 | 0.962 | 9.74 | 7.57 | inactive |
| TAGLN3 (transgelin 3) | 3 | 0.232 | 4.6 | 6.29 | inactive |

The list goes on; the last 6 above are carried over.
| gene knocked down | reagent no. | G2 robust z-score | G2 cells, % of GMNN control | raw share of cells in G2 (%) | call |
| --- | --- | --- | --- | --- | --- |
| DDIT3 (DNA damage inducible transcript 3) | 1 | -0.264 | 1.11 | 3.96 | inactive |
| DDIT3 (DNA damage inducible transcript 3) | 2 | 0.965 | 9.75 | 9.88 | inactive |
| DDIT3 (DNA damage inducible transcript 3) | 3 | -0.463 | -0.29 | 3.98 | inactive |
| TAGLN3 (transgelin 3) | 1 | -0.819 | -2.79 | 2.37 | inactive |
| TAGLN3 (transgelin 3) | 2 | 0.962 | 9.74 | 7.57 | inactive |
| TAGLN3 (transgelin 3) | 3 | 0.232 | 4.6 | 6.29 | inactive |
| PCGF6 (polycomb group ring finger 6) | 1 | -0.0343 | 2.73 | 3.75 | inactive |
| PCGF6 (polycomb group ring finger 6) | 2 | -0.186 | 1.66 | 6.66 | inactive |
| PCGF6 (polycomb group ring finger 6) | 3 | 2.63 | 21.5 | 10.4 | inactive |
| H1-5 (H1.5 linker histone, cluster member) | 1 | 3.13 | 25 | 17 | inactive |
| H1-5 (H1.5 linker histone, cluster member) | 2 | -0.762 | -2.39 | 3.21 | inactive |
| H1-5 (H1.5 linker histone, cluster member) | 3 | 0.341 | 5.36 | 5.62 | inactive |
| SCHIP1 (schwannomin interacting protein 1) | 1 | 0.0901 | 3.6 | 5.23 | inactive |
| SCHIP1 (schwannomin interacting protein 1) | 2 | 0.331 | 5.3 | 6.55 | inactive |
| SCHIP1 (schwannomin interacting protein 1) | 3 | -1.02 | -4.17 | 1.94 | inactive |
| DLG2 (discs large MAGUK scaffold protein 2) | 1 | 1.28 | 12 | 9.38 | inactive |
| DLG2 (discs large MAGUK scaffold protein 2) | 2 | -0.308 | 0.799 | 4.37 | inactive |
| DLG2 (discs large MAGUK scaffold protein 2) | 3 | 3.76 | 29.4 | 15.5 | inactive |
| PDIK1L (PDLIM1 interacting kinase 1 like) | 1 | -0.209 | 1.49 | 5.73 | inactive |
| PDIK1L (PDLIM1 interacting kinase 1 like) | 2 | -0.837 | -2.92 | 4.68 | inactive |
| PDIK1L (PDLIM1 interacting kinase 1 like) | 3 | -1.44 | -7.14 | 1.39 | inactive |
| KIF2C (kinesin family member 2C) | 1 | -0.162 | 1.83 | 4.43 | inactive |
| KIF2C (kinesin family member 2C) | 2 | -1.22 | -5.6 | 3.26 | inactive |
| KIF2C (kinesin family member 2C) | 3 | -0.486 | -0.454 | 6.3 | inactive |
| UFSP1 (UFM1 specific peptidase 1) | 1 | -0.946 | -3.69 | 3.26 | inactive |
| UFSP1 (UFM1 specific peptidase 1) | 2 | 2.09 | 17.7 | 10.2 | inactive |
| UFSP1 (UFM1 specific peptidase 1) | 3 | 1.3 | 12.1 | 8.32 | inactive |
| SLC16A14 | 1 | 0.856 | 8.99 | 10.2 | inactive |
| SLC16A14 | 2 | -0.506 | -0.589 | 4.49 | inactive |
| SLC16A14 | 3 | 0.0249 | 3.14 | 6.02 | inactive |
| TAF4B (TATA-box binding protein associated factor 4b) | 1 | -1.3 | -6.2 | 2.38 | inactive |
| TAF4B (TATA-box binding protein associated factor 4b) | 2 | 0.178 | 4.22 | 5.57 | inactive |
| TAF4B (TATA-box binding protein associated factor 4b) | 3 | 2.17 | 18.2 | 9.79 | inactive |
| TMEM205 (transmembrane protein 205) | 1 | -0.658 | -1.66 | 3.41 | inactive |
| TMEM205 (transmembrane protein 205) | 2 | -0.14 | 1.98 | 4.13 | inactive |
| TMEM205 (transmembrane protein 205) | 3 | 0.105 | 3.7 | 5.68 | inactive |
